{"source": "paper PMC11526107", "key": {"[1]": {"biological_target": "T1, Flag-tagged STING (UniProt Q3TBT3)", "T1 sequence": "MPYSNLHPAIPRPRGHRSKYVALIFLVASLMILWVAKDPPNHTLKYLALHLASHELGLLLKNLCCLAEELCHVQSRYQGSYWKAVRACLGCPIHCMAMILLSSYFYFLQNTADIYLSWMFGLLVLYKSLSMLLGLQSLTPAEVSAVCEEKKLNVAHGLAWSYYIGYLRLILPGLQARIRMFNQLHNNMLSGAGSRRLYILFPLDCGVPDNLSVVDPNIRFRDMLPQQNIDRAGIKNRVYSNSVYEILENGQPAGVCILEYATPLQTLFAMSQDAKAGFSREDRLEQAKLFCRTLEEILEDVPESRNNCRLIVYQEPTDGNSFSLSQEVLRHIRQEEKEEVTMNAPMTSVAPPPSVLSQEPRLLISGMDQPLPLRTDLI", "assay": "co-IP; HEK293T cells transfected with tagged plasmids; IP buffer 1.0% Nonidet P 40, 50 mM Tris-HCl pH 7.4, 50 mM EDTA, 150 mM NaCl"}, "[2]": {"biological_target": "T2, Stimulator of interferon genes (STING), endogenous in mouse peritoneal macrophages (mouse (endogenous in peritoneal macrophages)) (UniProt Q3TBT3)", "T2 sequence": "T1 sequence", "assay": "co-IP; endogenous proteins in mouse peritoneal macrophages, resting or stimulated with ISD or cGAMP; IP buffer 1.0% Nonidet P 40, 50 mM Tris-HCl pH 7.4, 50 mM EDTA, 150 mM NaCl; antibody with protein G Plus-Agarose overnight, five washes"}}, "note": "No constants are given. Whether binding was seen depends on the method and setting. Binding seen in cells or lysates may run through a third protein. Binding calls can cover weak binding; strength is not graded here. For some assays here: Sequences can lack the tags named with a protein.", "data": [{"substance": "HA-tagged ZAPL", "values": [{"measurement": "binding", "setting": "[1]", "value": "binds"}]}, {"substance": "ZAPS (ZC3HAV1 short isoform), endogenous in mouse peritoneal macrophages", "values": [{"measurement": "binding", "setting": "[2]", "value": "binds"}]}]}
